Results deposited as PubChem BioAssay AID652272 (Drosophila RNAi Screening Center, 2013).
In all, the deposit lists about 21,000 reagents; shown is a random part of those that have a named target and a result. Over the whole deposit, 503 (2.4%) were called active. 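Raw plate light values, not normalised; calls rest on replicate z-scores that were not deposited; hits include reporter decreases as well as increases.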 Unmarked entries are inactive. Names joined by + are all predicted targets of the reagent. Not stated in the record: the amount of reagent, the time to read-out.

Assay: 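Finding fly genes that regulate Hedgehog signal transduction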 (primary screen)
Cell system: Drosophila clone 8 (Cl8) cells
Reagent: long dsRNA against Drosophila genes
Detection: 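Plate reader light from a firefly reporter under a ptc promoter fragment that responds to Hedgehog, with Renilla light as transfection reference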
Direction: firefly Hh reporter signal: higher = more ptc reporter light; Renilla reference signal: higher = more Renilla control light
Call rule: 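Hit when the z-score averaged over two replicates is under -2 or over +3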
Calls: active = hit: reporter lowered or raised; inactive = not a hit

gene | DRSC id | firefly Hh reporter signal, replicate 1 | firefly Hh reporter signal, replicate 2 | firefly Hh reporter signal, replicate 3 | Renilla reference signal, replicate 1 | Renilla reference signal, replicate 2
CG6813 (GeneID 41396) | DRSC16122 | 68474 | 1.00e5 | – | 1506 | 4996
Camta (GeneID 35974) | DRSC06440 | 1.24e5 | 39268 | – | 3253 | 3800
Camta (GeneID 35974) | DRSC06441 | 1.70e5 | 3.58e5 | 94860 | 4193 | 22932
Camta (GeneID 35974) | DRSC07272 | 72541 | 34537 | – | 2592 | 1366
FBXO11 (GeneID 41209) | DRSC16497 | 1.04e5 | 74881 | – | 4496 | 2373
CG6503 (GeneID 50079) | DRSC16056 | 7.81e5 | 1.34e5 | – | 38101 | 625
Vha100-1 (GeneID 43442) | DRSC14148 | 81609 | 90026 | – | 1888 | 2170
CG33922 (GeneID 3771945) | DRSC00050 | 7.24e5 | 3.07e5 | – | 40618 | 12528
lncRNA:CR42862 (GeneID 10178964) | DRSC08348 | 91984 | 1.02e5 | – | 4034 | 4633
Nubp1 (GeneID 35000) | DRSC02639 | 65322 | 41959 | – | 2610 | 1745
CheB53a (GeneID 3346205) | DRSC06625 | 74352 | 58964 | – | 1926 | 4438
PIG-T (GeneID 31772) | DRSC17774 | 78761 | 1.99e5 | – | 2448 | 6770
CG8136 (GeneID 41037) | DRSC16385 | 82854 | 1.33e5 | – | 3531 | 7324
lambdaTry (GeneID 36214) | DRSC06137 | 1.38e5 | 51420 | – | 3527 | 4025
Tsp33B (GeneID 34590) | DRSC02418 | 1.02e5 | 56604 | – | 2631 | 4050
Srp54k (GeneID 38593) | DRSC11289 | 57206 | 44018 | – | 4714 | 3509
Pop4 (GeneID 38889) | DRSC10955 | 38752 | 51069 | – | 4490 | 3513
CysRS-m (GeneID 36563) | DRSC07129 | 94442 | 57463 | – | 3990 | 2475
Klp3A (GeneID 31240) | DRSC18676 | 1.39e5 | 1.17e5 | – | 3109 | 4999
Fign (GeneID 33544) | DRSC00592 | 1.08e5 | 76279 | – | 4201 | 2460
BckdhB (GeneID 3355069) | DRSC21183 | 87490 | 1.64e5 | – | 2218 | 7296
Eig71Ek (GeneID 39712) | DRSC11158 | 1.27e5 | – | – | 7168 | 3672
crc (GeneID 47767) | DRSC03513 | 97580 | 77147 | – | 2523 | 6331
phtf (GeneID 35583) | DRSC05023 | 98855 | 68774 | – | 3683 | 2045
CG34297 (GeneID 5740802) | DRSC12410 | 1.55e5 | – | – | 3968 | –
CG6254 (GeneID 41244) | DRSC16002 | 1.16e5 | 1.04e5 | – | 5080 | 4130
Lipt2 (GeneID 40565) | DRSC12338 | 1.87e5 | 7.59e5 | 1.15e5 | 8277 | 44790
Blos3 (GeneID 5740347) | DRSC09573 | 6.11e5 | 1.25e5 | – | 5543 | 5543
OdsH (GeneID 32758) | DRSC20263 | 1.23e5 | 3.41e5 | – | 5276 | 12865
CG32708 (GeneID 318161) | DRSC18411 | 1.49e5 | 3.39e5 | – | 5322 | 11672
Nubp2 (GeneID 40282) | DRSC11758 | 1.17e5 | 98196 | – | 4721 | 2944
CG7945 (GeneID 39679) | DRSC10934 | 81433 | 46426 | – | 3088 | 1831
Tbp (GeneID 37476) | DRSC04662 | 84482 | 37746 | – | 2141 | 3108
wupA (GeneID 32794) | DRSC20385 | 1.43e5 | 6.75e5 | 4.20e5 | 5659 | 6851
alka (GeneID 36145) | DRSC06136 | 58518 | 38505 | – | 1537 | 3243
koko + Vti1b | DRSC16283 | 1.25e5 | 1.35e5 | – | 4890 | 5130
koko + Vti1b | DRSC16284 | 4.84e5 | 99184 | – | 26640 | 3016
Send1 (GeneID 33407) | DRSC00482 | 95588 | 86528 | – | 2371 | 1960
CG32845 (GeneID 318243) | DRSC07867 | 94790 | 2.34e5 | – | 2794 | 9923

Individual results from the entries so far:
Under “firefly Hh reporter signal, replicate 1”, wupA (GeneID 32794) [DRSC20385] shows 1.43e5
phtf (GeneID 35583) [DRSC05023], firefly Hh reporter signal, replicate 2 → 68774
Under “Renilla reference signal, replicate 2”, CG32845 (GeneID 318243) [DRSC07867] reads 9923
For “firefly Hh reporter signal, replicate 2”, alka (GeneID 36145) [DRSC06136] shows 38505
